The target in this assay is His-tagged human HER3 antigen (human) (UniProt P21860). As to the kind of experiment: SPR, Biacore 8K. On the technique in general: SPR reads the build-up and loss of mass on a sensor chip optically.

Chains of the proteins cited; added tags and fusions are not shown. Residues count along the entry.
UniProt P21860, residues 20-643: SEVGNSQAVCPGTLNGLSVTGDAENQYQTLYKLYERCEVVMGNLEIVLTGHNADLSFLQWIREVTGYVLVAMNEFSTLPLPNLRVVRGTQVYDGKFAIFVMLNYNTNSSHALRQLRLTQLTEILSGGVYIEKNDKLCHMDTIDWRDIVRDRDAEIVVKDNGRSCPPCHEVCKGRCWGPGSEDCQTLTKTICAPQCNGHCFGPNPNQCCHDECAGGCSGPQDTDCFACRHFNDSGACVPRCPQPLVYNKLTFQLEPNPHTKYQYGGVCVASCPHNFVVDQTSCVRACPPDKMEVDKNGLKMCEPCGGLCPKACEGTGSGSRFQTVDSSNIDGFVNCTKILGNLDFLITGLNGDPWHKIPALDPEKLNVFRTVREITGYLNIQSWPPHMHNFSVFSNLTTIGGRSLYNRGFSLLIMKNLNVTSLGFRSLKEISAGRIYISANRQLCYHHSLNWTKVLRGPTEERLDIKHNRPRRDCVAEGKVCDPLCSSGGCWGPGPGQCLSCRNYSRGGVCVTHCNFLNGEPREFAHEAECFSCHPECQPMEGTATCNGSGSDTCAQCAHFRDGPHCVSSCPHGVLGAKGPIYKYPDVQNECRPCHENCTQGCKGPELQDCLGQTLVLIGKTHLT

No constants are given. Whether binding was seen depends on the method and setting. Some binding calls cover weakened binding; strength is not graded here.

Drawing on patent EP4778941A1, “HER3/MET BINDING MOLECULE AND PHARMACEUTICAL USE THEREOF” (priority 2023, dated 2025), this text covers binding for one molecule.

B1: Antibody A T94V (antibody, human IgG1, kappa, V domains shown)
VH: QVQLVQSGGGLVQPGRSLRLSCAASGFTFDDYAMHWVRQAPGKGLEWVSGISWNSGSIGYADSVKGRFTISRDNAKNSLYLQMNSLRAEDTALYYCAKEGLPGLDYWGQGTLVTVSS
VL: DIQMTQSPSSLSASIGDRATITCRASQHVGTYLNWYQQKPGKTPKLLISGAANLQSGVPSRFSGSGSGTDFTLTISSLQPEDFATYYCQQSYNVPPFSFGQGTKVEIKR
In the case of B1, the binding entry is on record as “binds”.
